Assay results published in US20190094246A1 (AMONETA DIAGNOSTICS SAS, priority 2016, published 2019).

Experiments:
RBCs from human subjects = assay: LOD and LLOQ of the RBC staining assay; assay type: cell-based; details: RBCs 200 000 cells/mL
[1] = general procedure: Fmoc solid-phase peptide synthesis; H-Ala-TentaGel R PHB; Polystyrene AM RAM (Rapp Polymere); HATU/NMM; DIC/OxymaPure; details: conjugation step
[2] = Agilent LC-MS system Infinity 1200 with 6230-TOF, C18 column

## COCCOCC#CB(C#CCOCCOC)n1c(C)cc(C)c1/C(=C1\N=C(C)C=C1C)c1ccc(C(=O)NCCCn2cc(C3=C(c4cn(C)c5ccccc45)C(=O)NC3=O)c3ccccc32)cc1 [Ex. 9]
RBCs from human subjects
  Compound concentration to obtain LLOQ: 0.01 µM

## Lys4N-2-(3-CO—CH2—S-2,5-dioxo-pyrrolidinyl)-ethylamido-Bodipyd-Beta-Amyloid (1-42)
[1]; [2]
  final LC-MS purity: 90.2%

## Palmitoyl-KKFFVLKG-X—NH2
[1]
  conjugation yield: 0.2%
[1]; [2]
  final purity (method not given): 93.7%
